# Source: paper PMC8039524
# Sequences of proteins named here, by UniProt entry; tags and fusion partners are left off.
# UniProt Q3V6T2: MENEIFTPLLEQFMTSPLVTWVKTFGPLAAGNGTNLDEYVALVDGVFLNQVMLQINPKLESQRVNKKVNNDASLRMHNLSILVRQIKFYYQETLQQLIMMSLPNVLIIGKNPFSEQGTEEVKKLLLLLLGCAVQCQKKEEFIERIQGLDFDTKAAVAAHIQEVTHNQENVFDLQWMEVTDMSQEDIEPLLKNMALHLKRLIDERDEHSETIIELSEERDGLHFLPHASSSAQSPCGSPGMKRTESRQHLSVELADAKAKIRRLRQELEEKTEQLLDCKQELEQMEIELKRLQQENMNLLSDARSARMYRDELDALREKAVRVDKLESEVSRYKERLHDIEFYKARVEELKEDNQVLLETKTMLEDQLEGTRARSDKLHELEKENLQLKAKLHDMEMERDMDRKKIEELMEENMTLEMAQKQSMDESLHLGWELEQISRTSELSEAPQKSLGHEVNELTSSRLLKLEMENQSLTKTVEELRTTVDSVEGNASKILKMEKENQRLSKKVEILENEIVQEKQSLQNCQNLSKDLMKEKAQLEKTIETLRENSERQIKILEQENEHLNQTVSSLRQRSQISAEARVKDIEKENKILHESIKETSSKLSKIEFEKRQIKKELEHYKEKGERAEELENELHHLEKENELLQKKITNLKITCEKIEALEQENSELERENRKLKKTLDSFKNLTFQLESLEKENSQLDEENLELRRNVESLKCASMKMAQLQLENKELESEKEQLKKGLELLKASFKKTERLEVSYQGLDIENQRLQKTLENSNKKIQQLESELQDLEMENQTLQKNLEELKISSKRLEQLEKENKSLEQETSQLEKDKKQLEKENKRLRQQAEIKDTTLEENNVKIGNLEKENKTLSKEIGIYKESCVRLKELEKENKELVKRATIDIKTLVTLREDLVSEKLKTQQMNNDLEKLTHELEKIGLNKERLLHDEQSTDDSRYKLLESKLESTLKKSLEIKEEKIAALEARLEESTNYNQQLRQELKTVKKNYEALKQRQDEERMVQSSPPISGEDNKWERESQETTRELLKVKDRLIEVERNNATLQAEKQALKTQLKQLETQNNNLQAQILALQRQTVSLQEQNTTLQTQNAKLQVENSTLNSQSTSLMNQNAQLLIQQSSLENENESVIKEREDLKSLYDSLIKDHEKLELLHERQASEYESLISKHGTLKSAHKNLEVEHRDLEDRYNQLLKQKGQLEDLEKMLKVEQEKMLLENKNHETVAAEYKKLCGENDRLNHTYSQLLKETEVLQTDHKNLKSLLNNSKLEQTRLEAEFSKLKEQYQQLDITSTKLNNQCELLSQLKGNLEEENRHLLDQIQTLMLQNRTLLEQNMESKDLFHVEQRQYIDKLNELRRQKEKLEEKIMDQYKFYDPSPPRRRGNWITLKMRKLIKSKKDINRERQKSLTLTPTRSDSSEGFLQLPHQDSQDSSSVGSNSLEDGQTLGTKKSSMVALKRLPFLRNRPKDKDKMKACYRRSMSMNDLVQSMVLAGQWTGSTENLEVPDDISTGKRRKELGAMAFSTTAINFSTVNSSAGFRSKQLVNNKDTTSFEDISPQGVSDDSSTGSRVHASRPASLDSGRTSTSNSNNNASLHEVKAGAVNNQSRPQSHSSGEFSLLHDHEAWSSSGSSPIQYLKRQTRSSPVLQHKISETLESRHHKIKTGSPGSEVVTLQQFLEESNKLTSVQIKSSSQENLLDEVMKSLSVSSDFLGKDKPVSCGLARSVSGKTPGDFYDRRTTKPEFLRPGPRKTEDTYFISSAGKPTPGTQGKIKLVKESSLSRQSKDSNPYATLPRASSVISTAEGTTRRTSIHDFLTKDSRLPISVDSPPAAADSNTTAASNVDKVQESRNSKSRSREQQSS
# Target: Girdin (girders of actin filament) (human (endogenous in BxPC-3 and PANC-1)) (UniProt Q3V6T2)
# Assay: affinity purification with mass spectrometry; lysates of BxPC-3 cells transfected with Scramble or Girdin lentivirus, immunoprecipitated with anti-Girdin antibody; LC-MS/MS on LTQ-Orbitrap, MaxQuant
row,Binder,binding
1,"Fructose-bisphosphate aldolase (protein, UniProt P04075 1-364) MPYQYPALTPEQKKELSDIAHRIVAPGKGILAADESTGSIAKRLQSIGTENTEENRRFYRQLLLTADDRVNPCIGGVILFHETLYQKADDGRPFPQVIKSKGGVVGIKVDKGVVPLAGTNGETTTQGLDGLSERCAQYKKDGADFAKWRCVLKIGEHTPSALAIMENANVLARYASICQQNGIVPIVEPEILPDGDHDLKRCQYVTEKVLAAVYKALSDHHIYLEGTLLKPNMVTPGHACTQKFSHEEIAMATVTALRRTVPPAVTGITFLSGGQSEEEASINLNAINKCPLLKPWALTFSYGRALQASALKAWGGKKENLKAAQEEYVKRALANSLACQGKYTPSGQAGAAASESLFVSNHAY",binds
2,"Four and a half LIM domains protein 2 (protein, UniProt Q14192 1-279) MTERFDCHHCNESLFGKKYILREESPYCVVCFETLFANTCEECGKPIGCDCKDLSYKDRHWHEACFHCSQCRNSLVDKPFAAKEDQLLCTDCYSNEYSSKCQECKKTIMPGTRKMEYKGSSWHETCFICHRCQQPIGTKSFIPKDNQNFCVPCYEKQHAMQCVQCKKPITTGGVTYREQPWHKECFVCTACRKQLSGQRFTARDDFAYCLNCFCDLYAKKCAGCTNPISGLGGTKYISFEERQWHNDCFNCKKCSLSLVGRGFLTERDDILCPDCGKDI",binds

# Continued, values first:
row,binding,Binder
1,binds,"Peptidyl-prolyl cis-trans isomerase FKBP4 (protein, UniProt Q02790 1-459) MTAEEMKATESGAQSAPLPMEGVDISPKQDEGVLKVIKREGTGTEMPMIGDRVFVHYTGWLLDGTKFDSSLDRKDKFSFDLGKGEVIKAWDIAIATMKVGEVCHITCKPEYAYGSAGSPPKIPPNATLVFEVELFEFKGEDLTEEEDGGIIRRIQTRGEGYAKPNEGAIVEVALEGYYKDKLFDQRELRFEIGEGENLDLPYGLERAIQRMEKGEHSIVYLKPSYAFGSVGKEKFQIPPNAELKYELHLKSFEKAKESWEMNSEEKLEQSTIVKERGTVYFKEGKYKQALLQYKKIVSWLEYESSFSNEEAQKAQALRLASHLNLAMCHLKLQAFSAAIESCNKALELDSNNEKGLFRRGEAHLAVNDFELARADFQKVLQLYPNNKAAKTQLAVCQQRIRRQLAREKKLYANMFERLAEEENKAKAEASSGDHPTDTEMKEEQKSNTAGSQSQVETEA"
2,binds,"Junction plakoglobin (protein, UniProt P14923 1-745) MEVMNLMEQPIKVTEWQQTYTYDSGIHSGANTCVPSVSSKGIMEEDEACGRQYTLKKTTTYTQGVPPSQGDLEYQMSTTARAKRVREAMCPGVSGEDSSLLLATQVEGQATNLQRLAEPSQLLKSAIVHLINYQDDAELATRALPELTKLLNDEDPVVVTKAAMIVNQLSKKEASRRALMGSPQLVAAVVRTMQNTSDLDTARCTTSILHNLSHHREGLLAIFKSGGIPALVRMLSSPVESVLFYAITTLHNLLLYQEGAKMAVRLADGLQKMVPLLNKNNPKFLAITTDCLQLLAYGNQESKLIILANGGPQALVQIMRNYSYEKLLWTTSRVLKVLSVCPSNKPAIVEAGGMQALGKHLTSNSPRLVQNCLWTLRNLSDVATKQEGLESVLKILVNQLSVDDVNVLTCATGTLSNLTCNNSKNKTLVTQNSGVEALIHAILRAGDKDDITEPAVCALRHLTSRHPEAEMAQNSVRLNYGIPAIVKLLNQPNQWPLVKATIGLIRNLALCPANHAPLQEAAVIPRLVQLLVKAHQDAQRHVAAGTQQPYTDGVRMEEIVEGCTGALHILARDPMNRMEIFRLNTIPLFVQLLYSSVENIQRVAAGVLCELAQDKEAADAIDAEGASAPLMELLHSRNEGTATYAAAVLFRISEDKNPDYRKRVSVELTNSLFKHDPAAWEAAQSMIPINEPYGDDMDATYRPMYSSDVPLDPLEMHMDMDGDYPIDTYSDGLRPPYPTADHMLA"

# Results are given in words; binding and its absence hold for the method and conditions named. In cells and extracts the contact can be indirect. Here binding means that the protein was enriched with, or labelled near, the bait; the list need not be complete.
